Some of the results follow. Shown are side measurements of this screen, not its main read-out; they come without a call. Compounds called inactive in the main read-out are mostly missing here. Words in brackets tell the shape of the fitted curve; partial curves, single points and poor fits give uncertain potencies.
Test: qHTS Assay for Lipid Storage Modulators in Drosophila S3 Cells;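 as to cell number change: cells counted by Cell Tracker Red CMTPX staining in the red channel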
Conditions: BODIPY lipid droplet fluorescence, 18-24 h; for cell number change: measured here: cell count max response, cells fed with added oleic acid
Summary of the method: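 Drosophila S3 cells got compounds at several concentrations plus oleic acid (400 uM solution). Laser-scanning cytometry with 488 nm excitation read lipid droplets at 500-530 nm and cells at 575-640 nm. Percent activity was relative to 20 uM Triacsin C.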

[1] = measured here: cell number channel AC50, cells fed with added oleic acid
[2] = measured here: lipid fluorescence (Fed channel) AC50, cells fed with added oleic acid

| Compound | cell number change [%] | AC50 [1] | AC50 [2] |
| --- | --- | --- | --- |
| Cc1cc(C)cc(NC(=O)c2ccccc2NC(=O)CCC(=O)O)c1 | -51.2 | 29.1 µM [falling, single point] | 3.26 µM [rising, single point] |
| COc1ccc(N2CCN(CCNC(=O)CCS(=O)(=O)c3cccc4nsnc34)CC2)cc1 | 3.21 |  | 25.9 µM [rising, single point] |
| O=C1NCN(c2ccccc2)C12CCN(CCCC(c1ccc(F)cc1)c1ccc(F)cc1)CC2 | -52.8 |  | 18.4 µM [falling, single point] |
| O=C(NCc1ccc2c(c1)OCO2)C1CCC(CNc2c(N3CCCCC3)c(=O)c2=O)CC1 (configuration not stated) |  |  | 0.092 µM [rising, full curve, poor fit] |
| CC(=O)Nc1cccc(NC(=O)CSc2nc(=O)n3cccc(C)c3n2)c1 | 19.5 | 0.326 µM [rising, full curve, poor fit] | 0.58 µM [rising, full curve, poor fit] |
| Oc1ccc(-c2csc(-c3c[nH]c4ccccc34)n2)c(O)c1 | -23.7 |  | 0.231 µM [rising, partial curve, poor fit] |
| Cc1ccc(Cl)c(OCCN2CCc3ccccc3C2)c1 | -24.9 |  |  |
| Cc1ccc(NC(=O)c2ccccc2OCC(=O)c2ccccc2)cc1 | -18.7 |  | 2.06 µM [rising, partial curve] |
| COc1ccc(C(=O)OCC(=O)NCCCc2ccccc2)cc1OC | 9.01 |  | 6.51 µM [rising, single point] |
| Cn1c(SCC(=O)N2CCCC2)nc2ccccc21 | -15 |  |  |
| C1CCC(NC2=NCCC2)CC1 | 25.6 |  | 10.3 µM [rising, partial curve] |
| Cc1c(C(=O)N(C)C(C)c2ccccn2)oc2c(F)cccc12 (configuration not stated) | -2.09 |  | 1.84 µM [falling, partial curve] |
| C=CCNc1nc(NCCN2CCOCC2)nc(N2CCOCC2)n1 | 4.92 |  | 3.66 µM [falling, full curve, poor fit] |
| Cc1cc(Cl)c(S(=O)(=O)Nc2ccc3c(c2)OCO3)cc1OCC(N)=O | 54.3 | 0.731 µM [rising, full curve] | 1.03 µM [rising, partial curve] |
| CCOc1ccc(NC(=O)CN(C)C(=O)CCC2CCCCC2)cc1OCC | 2.61 |  | 0.00461 µM [rising, full curve, poor fit] |
| CCCn1c(=O)c2ccccc2n2c(SCc3cc(=O)oc4ccc5ccccc5c34)nnc12 | 13.2 |  | 0.164 µM [falling, partial curve, poor fit] |
| O=C1OCC/C1=C\c1ccccc1O | 13.3 |  |  |
| CCOC(=O)c1cn2c(C)cccc2n1 | -25.2 | 0.184 µM [rising, single point] | 4.11 µM [falling, single point] |
| CCOc1ccc(-c2cc(C)n3nc(C(N)=O)cc3n2)cc1 |  | 3.66 µM [rising, partial curve] | 2.31 µM [rising, partial curve] |
| CCOC(=O)c1cnn(-c2nc(OC)cc(OC)n2)c1C(F)(F)F |  | 0.58 µM [rising, single point] | 0.58 µM [rising, single point] |

| Compound | cell number change [%] | AC50 [1] | AC50 [2] |
| --- | --- | --- | --- |
| CSc1ccc(CN(C)C(=O)CCNS(=O)(=O)c2ccc(C)c(C)c2)cc1 | -57.3 | 25.9 µM [falling, partial curve] | 0.0651 µM [falling, full curve] |
| CC1CCN(c2c(NCC3CCC(C(=O)N4CCCCC4)CC3)c(=O)c2=O)CC1 (configuration not stated) | 11.4 |  |  |
| CCOC(=O)c1nn(-c2cccc(OC)c2)c2nc(Nc3ccccc3)cc(=O)n12 | -11.8 |  | 2.91 µM [rising, full curve] |
| O=C(O)c1ccccc1C(=O)N1CCN(Cc2ccc3c(c2)OCO3)CC1 | -11.1 | 2.06 µM [falling, single point] |  |
| COc1cccc(/C=N/NC(=O)CNC(=O)C2COc3ccccc3O2)c1O (configuration not stated) | -1.64 |  | 2.91 µM [falling, full curve, poor fit] |
| O=S(=O)(Nc1ccc(-n2cnnn2)cc1)c1cccc(Cl)c1 | 8.84 |  |  |
| c1ccc2c(N3CCCCC3)ncnc2c1 | -10.5 |  | 18.4 µM [rising, single point] |
| COc1ccc(NC(=O)Cn2cnc3c(cnn3-c3ccc(C)c(C)c3)c2=O)c(OC)c1 | -23.6 | 0.366 µM [falling, single point] | 6.51 µM [falling, single point] |
| COc1ccc(OC)c(NC(=O)CSc2ccc3ccccc3c2)c1 | -16.3 |  | 11.6 µM [falling, partial curve] |
| Cc1nn(C(C)C(=O)NCC2CCCO2)c(C)c1[N+](=O)[O-] (configuration not stated) | -0.294 |  | 0.164 µM [falling, full curve] |
| CCOc1ccc(-c2nc(N)ncc2-c2ccccc2)c(O)c1 | -100 | 23.1 µM [falling, single point] | 29.1 µM [falling, partial curve] |
| CCOC(=O)Cn1ccc(O)c(Cc2ccc(Cl)cc2Cl)c1=O |  |  | 6.51 µM [falling, single point] |
| O=S(=O)(c1cccc(-c2cn3cccnc3n2)c1)N1CCOCC1 | -1.74 |  | 2.59 µM [rising, single point] |
| CC(=O)C1(C)N(O)C(C)(C)C(c2cccs2)=[N+]1[O-] (configuration not stated) | -36.1 | 16.4 µM [falling, partial curve] | 20.6 µM [falling, partial curve, poor fit] |
| CS(=O)(=O)N1CCN(C(=O)c2cc3ccccc3oc2=O)CC1 | -8.44 |  | 7.31 µM [falling, partial curve] |
| O=C(N/N=C/C=C/c1ccccc1[N+](=O)[O-])c1cc(-c2cccnc2)nc2ccccc12 | 10.1 |  | 0.58 µM [rising, full curve] |
| COCCCNC(=O)/C(C#N)=C/c1c(N2CCN(c3cccc(Cl)c3)CC2)nc2c(C)cccn2c1=O | -42.2 | 25.9 µM [falling, single point] | 0.58 µM [falling, full curve, poor fit] |
| COc1ccccc1OCCOc1ccc(/C=N/n2cnnc2)cc1 | 5.17 |  |  |
| COc1ccc(-n2nc3cc(C)c(NC(=O)CC(C)C)cc3n2)cc1 | -21.2 |  | 0.00411 µM [rising, full curve, poor fit] |
| COC(=O)C1C(=O)C2=C(CC1C)NC(=O)CC2c1ccc(F)cc1 (configuration not stated) | -11.9 | 0.731 µM [falling, single point] |  |

Record cards, from the list above.
Cc1c(C(=O)N(C)C(C)c2ccccn2)oc2c(F)cccc12 (configuration not stated) is entered as cell number change [%]: -2.09; AC50 [2]: 1.84 µM [falling, partial curve]
COc1ccc(N2CCN(CCNC(=O)CCS(=O)(=O)c3cccc4nsnc34)CC2)cc1 is entered as cell number change [%]: 3.21; AC50 [2]: 25.9 µM [rising, single point]

Continued.

| Compound | cell number change [%] | AC50 [1] | AC50 [2] |
| --- | --- | --- | --- |
| O=C(CSc1nc2sc3c(c2c(=O)[nH]1)CCCC3)NCCO | 9.85 | 0.146 µM [rising, full curve, poor fit] |  |
| CC(=O)Cc1nsc(NC(=O)c2ccccc2Cl)n1 | -24.7 | 3.26 µM [falling, single point] |  |
| O=C(NCCCN1CCCC1=O)c1cccc(S(=O)(=O)Nc2ccc(F)cc2)c1 | -20.5 |  | 5.17 µM [falling, full curve, poor fit] |
| COc1c(C)cc(C(=O)C2CCCN(C(=O)c3cc(C)n(C)n3)C2)cc1C (configuration not stated) |  | 4.11 µM [rising, partial curve, poor fit] | 5.17 µM [rising, single point] |
| COc1ccc(C)cc1S(=O)(=O)N1CCN(C(=O)c2ncoc2-c2cccc(C)c2)CC1 |  |  | 0.231 µM [rising, full curve] |
| CCOC(=O)c1ccccc1NC(=O)c1cc(S(=O)(=O)N2CCOCC2)ccc1F | 167 | 5.8 µM [rising, partial curve] | 3.66 µM [rising, partial curve] |
| CCOC(=O)C1=C(CN2CCN(C(=O)OCC)CC2)NC(=O)NC1c1ccc2c(c1)OCO2 (configuration not stated) | 19.7 |  | 6.51 µM [rising, single point] |
| O=C1/C(=C/c2ccc(F)cc2)SC(=S)N1CC(=O)N1CCCCC1c1cccnc1 (configuration not stated) | -21.7 |  | 29.1 µM [falling, single point] |
| O=C(NCc1ccc2c(c1)OCO2)c1cccc(C(=O)NCc2ccc3c(c2)OCO3)c1 | -18.8 |  | 2.06 µM [rising, single point] |
| COc1ccc(/C=C/C(=O)ONC2=NCCCCC2)cc1OC | 71.8 | 29.1 µM [rising, single point] | 0.116 µM [falling, full curve] |
| COc1ccc(S(=O)(=O)Nc2ccccn2)cc1OC |  |  | 0.58 µM [falling, single point] |
| CCn1c(=O)c(=O)[nH]c2cc(C(=O)N3CCN(Cc4ccc5c(c4)OCO5)CC3)ccc21 | -30.5 | 0.184 µM [falling, full curve, poor fit] |  |
| COC(=O)C1=C(C)NC(C)=C(C(=O)OC)C1c1ccc(NC(C)=O)cc1 | -0.875 |  |  |
| Cc1sc2ncnc(N3CCC(C(=O)Nc4nc(-c5ccc(F)cc5)cs4)CC3)c2c1C | -9.08 |  |  |
| Cc1nn(C)cc1NC(=O)c1nn(C)cc1[N+](=O)[O-] | 7.62 |  | 32.6 µM [falling, single point] |
| COC(=O)c1sc(-c2ccc(Cl)cc2)cc1N | -7.4 |  | 1.3 µM [rising, partial curve, poor fit] |
| CC(C)(C)c1ccc(C(=O)NCCOc2ccccc2F)cc1 | 2.7 |  | 29.1 µM [falling, single point] |
| Cc1ccc(C)c(C(C)NC(=O)c2ccccc2Br)c1 (configuration not stated) | 0.437 |  | 2.91 µM [rising, single point] |
| Cc1cc(S(=O)(=O)NCC2CC2)c(Cl)cc1Cl | -36.8 | 18.4 µM [falling, single point] |  |

Of the compounds above, these have an NH in an aromatic ring:

| Compound | cell number change [%] | AC50 [1] | AC50 [2] |
| --- | --- | --- | --- |
| Oc1ccc(-c2csc(-c3c[nH]c4ccccc34)n2)c(O)c1 | -23.7 |  | 0.231 µM [rising, partial curve, poor fit] |
| O=C(CSc1nc2sc3c(c2c(=O)[nH]1)CCCC3)NCCO | 9.85 | 0.146 µM [rising, full curve, poor fit] |  |
| CCn1c(=O)c(=O)[nH]c2cc(C(=O)N3CCN(Cc4ccc5c(c4)OCO5)CC3)ccc21 | -30.5 | 0.184 µM [falling, full curve, poor fit] |  |

— PubChem BioAssay AID2685 (National Center for Advancing Translational Sciences (NCATS), 2010)
